The values below come from PMC10930986.

By UniProt entry, the sequences of proteins in these tests, tags left out.
UniProt P21796: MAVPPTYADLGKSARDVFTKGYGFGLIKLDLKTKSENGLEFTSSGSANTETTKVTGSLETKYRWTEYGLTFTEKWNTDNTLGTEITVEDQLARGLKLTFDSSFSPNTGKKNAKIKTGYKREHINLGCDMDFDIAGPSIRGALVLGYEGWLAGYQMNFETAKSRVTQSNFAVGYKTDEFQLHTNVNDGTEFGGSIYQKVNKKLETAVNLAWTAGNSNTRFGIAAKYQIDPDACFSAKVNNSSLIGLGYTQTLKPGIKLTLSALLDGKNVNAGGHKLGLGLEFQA
UniProt P49841: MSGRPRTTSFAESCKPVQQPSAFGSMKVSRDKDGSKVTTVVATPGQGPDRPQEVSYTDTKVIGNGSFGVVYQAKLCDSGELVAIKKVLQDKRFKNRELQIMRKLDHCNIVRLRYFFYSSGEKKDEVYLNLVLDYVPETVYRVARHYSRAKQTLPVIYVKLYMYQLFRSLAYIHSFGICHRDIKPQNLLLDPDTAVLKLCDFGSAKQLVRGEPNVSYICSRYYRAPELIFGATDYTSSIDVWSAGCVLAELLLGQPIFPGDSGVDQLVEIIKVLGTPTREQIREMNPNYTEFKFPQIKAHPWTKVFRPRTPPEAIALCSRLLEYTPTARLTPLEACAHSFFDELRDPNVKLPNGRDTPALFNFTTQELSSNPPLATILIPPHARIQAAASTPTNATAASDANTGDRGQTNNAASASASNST

This assay deals with voltage-dependent anion channel 1 (VDAC1) (human (endogenous in MCF-10A, MDA-MB-231, Hs578t)) (UniProt P21796). Briefly: co-IP; HKII and GSK3β co-immunoprecipitated with VDAC1; MCF-10A, MDA-MB-231 and Hs578t cells transfected for 48 h with pmOGT-HaloTaq or pHaloTaq (control).

Results are given in words; binding and its absence hold for the method and conditions named. Binding seen in cells or lysates may run through a third protein. Some entries that bind do so weakly or less than the wild type.

Turning to “glycogen synthase kinase (GSK3β) (from UniProt P49841 1-420) (enzyme)”, the binding entry is given as “binds”.
